# Test results as given in PubChem BioAssay AID485314 (National Center for Advancing Translational Sciences (NCATS), 2010).
# About 4,500 (1.3%) of roughly 340,000 compounds were called active. This list was built around the results that the source calls inconclusive (neither active nor inactive); the mix of calls is not that of the screen. Calls come from the whole dose curve; as a rule, active = well fitted inhibition curve with a large enough effect; inconclusive = small, poorly fitted or top-dose-only effect, or another doubt; inactive = no such curve, though single readings can be large or run the other way. Potencies beside an inconclusive call are fits to weak or partial responses and may not hold up.
# Target: DNA polymerase beta (Homo sapiens) (UniProt P06746)
# Test: qHTS Assay for Inhibitors of DNA Polymerase Beta
# Details: Pol beta primer extension/strand displacement, fluorescence kinetic; series mostly up to 114 µM
# How it was run: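 10 nM enzyme + cpd, 15 min RT; start with substrate 50 nM final; read 0 min and after 10 min RT. Corrected, normalized data; 4-parameter Hill curve fit.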
# Potency is the fitted concentration of half-maximal effect.
row,Structure (SMILES),Potency
1,C=CC[C@H]1CC(C)=C[C@H](CC=C)N1C(=O)c1cc(COc2ccccc2SC)on1,inactive
2,O=C(c1ccc(COc2c(F)c(F)cc(F)c2F)o1)N1CCN(c2ccc(Cl)cc2)CC1,"inconclusive: 0.708 µM [inhibitor, full curve, poor fit]"
3,CCN(CC)/C(=N/S(=O)(=O)c1ccc(C)cc1)c1ccccc1,"inconclusive: 0.112 µM [inhibitor, full curve, poor fit]"
4,CCOc1cc(N2CCOCC2)c(OCC)cc1NC(=O)CSc1cccc[n+]1[O-],"inconclusive: 3.16 µM [inhibitor, full curve]"
5,CCOc1ccc(NC(=O)CSc2nnc(-c3ccccc3)n2N)cc1,active: 22.4 µM
6,COCCCn1c(=NC(=O)c2ccc3c(c2)OCO3)c(C#N)cc2c(=O)n3cccc(C)c3nc21,"inconclusive: 89.1 µM [inhibitor, single point]"
7,Cc1ccc(SCC(=O)Nc2ccc(S(=O)(=O)Nc3ncccn3)cc2)cc1,"inconclusive: 56.2 µM [inhibitor, partial curve, poor fit]"
8,CC1=NNC(=O)C1CCC(=O)N/N=C/c1c(Cl)cccc1Cl (stereo unspecified),"inconclusive: 89.1 µM [inhibitor, single point]"
9,O=C(N/N=C/c1ccc(-c2cccc([N+](=O)[O-])c2)o1)c1ccccc1O,"inconclusive: 12.6 µM [inhibitor, full curve]"
10,Cc1[nH]n(-c2ccccc2)c(=O)c1N=Nc1cccc([N+](=O)[O-])c1,inactive
11,COc1c2ccccc2nc2ccccc12,"inconclusive: 25.1 µM [inhibitor, partial curve, poor fit]"
12,CCOc1ccccc1CNC(=O)c1cnc2sc(N3CCCCCC3)nn2c1=O,inactive
13,Cc1cccc(C)c1OCc1cc(C(=O)N2CCC(c3ccncc3)CC2)no1,inactive
14,Cc1ccc(N2C(=O)NC3(CCCCC3)C2=O)cc1,"inconclusive: 0.112 µM [inhibitor, full curve, poor fit]"
15,COC(=O)C1CCCN1C(=O)C12CC3CC(CC(C3)C1)C2 (stereo unspecified),"inconclusive: 39.8 µM [inhibitor, partial curve]"
16,Nc1c(C(O)(C(F)(F)F)C(F)(F)F)ccc2ccccc12,"inconclusive: 5.01 µM [inhibitor, full curve, poor fit]"
17,COc1ccc(Cn2c(SCc3ccc(C(=O)NC4CCCC4)cc3)nc3cccnc32)cc1,inactive
18,COc1ccc2cc(C(N)=O)c(=Nc3ccc(C)cc3)oc2c1,inactive
19,COC(=O)c1ccccc1NC(=O)c1cc2nc(-c3ccc(OC)cc3)cc(C(F)(F)F)n2n1,inactive
20,Cc1ccc(C)c(SCC(=O)NCc2ccco2)c1,"inconclusive: 5.01 µM [inhibitor, full curve, poor fit]"
21,COC(=O)c1scc(C)c1N1C(=O)c2ccccc2C1=O,"inconclusive: 70.8 µM [inhibitor, single point]"
22,COc1ccccc1C(=O)Nc1nc(-c2ccc(S(=O)(=O)N3CCOCC3)cc2)cs1,"inconclusive: 0.708 µM [inhibitor, full curve, poor fit]"

# Taken from above.
# Under Potency, COC(=O)C1CCCN1C(=O)C12CC3CC(CC(C3)C1)C2 (stereo unspecified) has inconclusive: 39.8 µM [inhibitor, partial curve]
# Under Potency, C=CC[C@H]1CC(C)=C[C@H](CC=C)N1C(=O)c1cc(COc2ccccc2SC)on1 has inactive

# (more compounds)

row,Structure (SMILES),Potency
1,CCn1cc2nc(SCC(=O)Nc3ccc(C)cc3C)n(Cc3ccc(C)cc3)c(=O)c2n1,active: 10 µM
2,Cc1ccc(-c2noc(CCC(=O)N3CCN(c4cccc(C(F)(F)F)c4)CC3)n2)cc1,"inconclusive: 50.1 µM [inhibitor, partial curve]"
3,CC1CC2=C(NC(=S)NC2c2ccccc2F)/C(=C/c2ccccc2F)C1 (stereo unspecified),inactive
4,O=C(O)c1nccnc1C(=O)Nc1ccccc1N1CCOCC1,"inconclusive: 89.1 µM [inhibitor, single point]"
5,Cc1ccccc1C(=O)NC(CC(C)C)C(=O)OCC(=O)c1c(N)n(C)c(=O)n(C)c1=O (stereo unspecified),"inconclusive: 0.282 µM [inhibitor, full curve, poor fit]"
6,CCOC(=O)CNS(=O)(=O)c1cc(-c2nnc(Nc3cccc(O)c3)c3ccccc23)ccc1C,inactive
7,CCOc1ccc(C(C(=O)NC2CCCC2)N(Cc2ccccc2)C(=O)c2nsc(Cl)c2Cl)cc1 (stereo unspecified),"inconclusive: 89.1 µM [inhibitor, single point]"
8,CCOc1ccc(/C(C)=N/NC(=O)C(OC)c2ccccc2)cc1 (stereo unspecified),"inconclusive: 39.8 µM [inhibitor, single point]"
9,Cc1cccc(-n2ncc(C(=O)NCc3ccc4c(c3)OCO4)c2C2CCN(C(=O)OC(C)(C)C)CC2)c1,inactive
10,Cc1nc2nc(C)n(-c3ccccc3)c2s1,inactive
11,Cc1ccc(C(=O)Oc2cccc(NC(=O)c3ccccc3)c2)cc1C,"inconclusive: 79.4 µM [inhibitor, single point]"
12,COCCn1c(=NC(=O)c2sc3ccccc3c2Cl)sc2cc(S(N)(=O)=O)ccc21,"inconclusive: 20 µM [inhibitor, partial curve, poor fit]"
13,CCOc1ncccc1C(=O)OCC(=O)c1ccc(F)cc1,"inconclusive: 89.1 µM [inhibitor, single point]"
14,COc1cccc(-c2nc3n(n2)C(c2ccccc2Cl)C(C(N)=O)=C(C)N3)c1 (stereo unspecified),"inconclusive: 5.01 µM [inhibitor, single point]"
15,NC(N)=NC(N)=Nc1cccc(Cl)c1,"inconclusive: 28.2 µM [inhibitor, single point]"
16,COc1cc(NC(=O)CSc2ncnc3scc(-c4ccccc4)c23)c(C(=O)O)cc1OC,"inconclusive: 89.1 µM [inhibitor, single point]"
17,Cc1cccc(OCC(=O)Nc2c3c(nn2C(C)(C)C)CS(=O)(=O)C3)c1,"inconclusive: 0.316 µM [inhibitor, full curve, poor fit]"
18,COc1ccccc1C(=O)Nc1cccc2nc(C)ccc12,"inconclusive: 100 µM [inhibitor, single point]"
19,O=C(NCc1ccco1)c1cc(S(=O)(=O)N2CCOCC2)c(Cl)cc1Cl,"inconclusive: 3.98 µM [inhibitor, full curve, poor fit]"
20,CCc1nc(N2CCOCC2)c(C#N)c2c1CCCC2,"inconclusive: 3.98 µM [inhibitor, single point]"
21,O=C(CCc1ccc(S(=O)(=O)NCCc2ccccc2)cc1)N1CCN(Cc2ccc3c(c2)OCO3)CC1,"inconclusive: 2.51 µM [inhibitor, partial curve, poor fit]"
22,C=CCNc1nnc(SCC(=O)N2CCCCC2)c2ccccc12,"inconclusive: 56.2 µM [inhibitor, partial curve]"

row,Structure (SMILES),Potency
1,O=C(Nc1ccc(Nc2ccncc2)cc1)c1ccc(Nc2ccnc3ccc([N+](=O)[O-])cc23)cc1[N+](=O)[O-],"inconclusive: 39.8 µM [inhibitor, single point]"
2,CCc1ccc(NC(=O)CN2C(=O)CC(c3ccccc3)Sc3ccccc32)cc1 (stereo unspecified),inactive
3,CCCCN(C)CCNC(=O)c1cc(-c2ccc(Cl)s2)nc2ccccc12,"inconclusive: 1 µM [inhibitor, full curve, poor fit]"
4,O=C(NNC(=O)c1ccccc1Br)c1ccc2nc[nH]c2c1,active: 22.4 µM
5,O=C(CCCC(=O)OCC1CCCO1)OCC1CCCO1 (stereo unspecified),"inconclusive: 89.1 µM [inhibitor, single point]"
6,Cc1ccccc1/C=C\c1nc2ccccc2c(=O)[nH]1,active: 25.1 µM
7,COC(=O)C1=C(NC(=O)c2cccs2)CCS1,"inconclusive: 2.51 µM [inhibitor, full curve, poor fit]"
8,CC1=C(C(=O)Nc2ccccc2)C(c2ccc(Cl)cc2)n2c(s/c(=C/c3cccc(OCC(=O)O)c3)c2=O)=N1 (stereo unspecified),active: 79.4 µM
9,CCC(C)[C@H](N)c1nnc(SCc2ccc(Cl)c(Cl)c2)o1 (stereo partly specified),"inconclusive: 89.1 µM [inhibitor, single point]"
10,Cc1ccc(S(=O)(=O)/N=C(\N)Nc2nc(C)c3ccccc3n2)cc1,inactive
11,Nc1nonc1C(=O)N/N=C/c1ccc(-c2cccc(C(=O)O)c2)o1,active: 17.8 µM
12,CC(C)(C)c1ccc(-c2nnc(-c3ccccc3NC(=O)c3cccc(C(F)(F)F)c3)o2)cc1,inactive
14,COc1ccc2nc(NC(=O)c3ccc([N+](=O)[O-])o3)sc2c1,"inconclusive: 63.1 µM [inhibitor, single point]"
15,CC1=C(C(=O)Nc2ccccc2)C(c2ccc(O)cc2)n2nc(-c3ccc(Cl)cc3)nc2N1 (stereo unspecified),"inconclusive: 25.1 µM [inhibitor, partial curve, poor fit]"
16,CCCS(=O)(=O)N1CCC(Cc2ccc(OC)cc2)(C(=O)OCC)CC1,"inconclusive: 100 µM [inhibitor, single point]"
17,O=C(COC(=O)c1ccccc1[N+](=O)[O-])c1ccc(C2CCCCC2)cc1,"inconclusive: 8.91 µM [inhibitor, partial curve]"
18,Oc1c(CN2CCCCC2)cc(COCc2ccccc2)c2cccnc12,inactive
19,O=C(CN1CCN(S(=O)(=O)c2ccc(F)cc2)CC1)c1ccc(O)c(O)c1,inactive
20,O=C(COC(=O)C12CC3CC(CC(C3)C1)C2)Nc1ncc(Cl)cc1Cl,"inconclusive: 1 µM [inhibitor, full curve, poor fit]"
21,CCn1c(CNc2nc(-c3ccccc3)cs2)nnc1SCC(=O)NCc1ccco1,"inconclusive: 22.4 µM [inhibitor, full curve, poor fit]"
22,NC(=O)CSc1nc2scc(-c3ccco3)c2c(=O)n1-c1ccccc1,"inconclusive: 20 µM [inhibitor, full curve, poor fit]"

# Entries shown so far containing an aryl methoxy group, in the order listed:
row,Structure (SMILES),Potency
11,COc1c2ccccc2nc2ccccc12,"inconclusive: 25.1 µM [inhibitor, partial curve, poor fit]"
17,COc1ccc(Cn2c(SCc3ccc(C(=O)NC4CCCC4)cc3)nc3cccnc32)cc1,inactive
18,COc1ccc2cc(C(N)=O)c(=Nc3ccc(C)cc3)oc2c1,inactive
19,COC(=O)c1ccccc1NC(=O)c1cc2nc(-c3ccc(OC)cc3)cc(C(F)(F)F)n2n1,inactive
22,COc1ccccc1C(=O)Nc1nc(-c2ccc(S(=O)(=O)N3CCOCC3)cc2)cs1,"inconclusive: 0.708 µM [inhibitor, full curve, poor fit]"
14,COc1cccc(-c2nc3n(n2)C(c2ccccc2Cl)C(C(N)=O)=C(C)N3)c1 (stereo unspecified),"inconclusive: 5.01 µM [inhibitor, single point]"
16,COc1cc(NC(=O)CSc2ncnc3scc(-c4ccccc4)c23)c(C(=O)O)cc1OC,"inconclusive: 89.1 µM [inhibitor, single point]"
18,COc1ccccc1C(=O)Nc1cccc2nc(C)ccc12,"inconclusive: 100 µM [inhibitor, single point]"
14,COc1ccc2nc(NC(=O)c3ccc([N+](=O)[O-])o3)sc2c1,"inconclusive: 63.1 µM [inhibitor, single point]"
16,CCCS(=O)(=O)N1CCC(Cc2ccc(OC)cc2)(C(=O)OCC)CC1,"inconclusive: 100 µM [inhibitor, single point]"
